According to the supplement of paper PMC3334620:
Whole data set: some 33,000 sequences, median “E-score (-0.5 to 0.5)” near -8e-05, cut for the highest 2% near 0.23. The list shows a part of the results.

Target: T1, Nrg2 (UniProt P38082)
T1 sequence: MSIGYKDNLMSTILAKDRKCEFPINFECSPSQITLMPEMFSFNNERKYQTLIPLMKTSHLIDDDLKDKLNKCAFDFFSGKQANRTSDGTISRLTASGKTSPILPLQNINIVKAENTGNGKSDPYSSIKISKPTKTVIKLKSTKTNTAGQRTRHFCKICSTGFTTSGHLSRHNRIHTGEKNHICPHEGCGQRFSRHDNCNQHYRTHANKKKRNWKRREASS
Assay: PBM E-score (8-mer binding enrichment) (E-score (-0.5 to 0.5)); higher = stronger / more preferred TF binding
Conditions: protein concentration: 100 nM; construct: GST-full length
Summary of the method: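 Bound GST-tagged yeast transcription factors, applied at about 100-200 nM to double-stranded universal all-10-mer Agilent arrays, were detected with fluorescent anti-GST. Scans were normalised with masliner. A modified Wilcoxon-Mann-Whitney statistic, the E-score, was assigned to each ungapped eight-base word pooled with its reverse complement by the Universal PBM Analysis Suite.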

Sequence	PBM E-score
CTGGATAA	0.0304
ACCTCCAG	-0.212
ACGGGTAG	-0.0786
CGACAGGC	-0.0567
CAGGAACG	0.0488
ATGTACGA	0.0829
AAGCTATC	0.153
AAAAGCGT	-0.0481
GCCATGAC	-0.214
GTAATTCA	0.105
CTGAGAGA	-0.101
ATCAGTGC	-0.0746
GTAACCGA	0.0943
ATGAAGTG	0.235
ACCGCAAT	0.213
CATCTTGC	0.0927
CCACAGCA	0.0353
ATGCTAAA	-0.0175
CAAAAATC	-0.168
AGCGTAAA	-0.0637
AACACGCG	-0.00818
AAAATTTG	-0.0398
GGTGCGTA	-0.14
ATGGTGTA	-0.0203
AGCGCTCC	0.0281

Sequence	PBM E-score
GGAGCACA	-0.106
TCTCACCA	-0.0291
GCGGATCA	0.0678
CATATGCC	0.0369
ATTTGCCA	-0.074
AGATAACT	-0.069
CGGATGAG	0.15
AGACAACG	0.186
ACGGTAGA	-0.0936
AATTATAC	0.122
AAAAGAGA	0.0202
CCTACACA	0.0832
ACCCATCG	-0.0465
ACCATCCG	-0.0186
ACTTTGCG	0.00022
ATGAGCAG	-0.0237
TCAGCTGA	0.279
ATGCCGGG	-0.157
CGAGTTTA	0.0171
AACTTTGC	0.0247
GTTGCTTA	0.097
AACATCCG	-0.0598
GCGTGTTA	-0.0649
CCCTAACG	-0.0356
CCAAATTA	0.12

Sequence	PBM E-score
AAACCGAA	-0.0367
CCACTTTA	0.0978
CTGAGGTA	0.104
CACTAAGG	0.0299
ACACATAT	0.0862
GCGTGATA	-0.00821
CAATGACC	-0.143
AATAGCCG	-0.0662
CATTGTTC	0.0751
GCTATTGA	-0.156
AAAGTGCC	-0.188
CACGGATA	0.235
ACAGTGCA	0.178
ACTTCATA	0.048
CCAGAGTA	0.0429
CTGCCAGC	-0.144
ACTGCAAG	-0.172
GGAGAGTA	-0.00931
CACTTATA	-0.023
TCTTAGAA	-0.0305
ACTTTTGA	-0.0356
ACCATCGC	0.139
ACAATACG	0.0515
ACACACTG	0.114
CGACTTCA	0.00997

Fetched one by one from the entries so far, 6 records:
Sequence	PBM E-score
AAAGTGCC	-0.188
CGACTTCA	0.00997
ACCATCGC	0.139
ATGTACGA	0.0829
GGAGAGTA	-0.00931
CTGAGGTA	0.104

Remaining list, next part

Sequence	PBM E-score
AGGATTGG	-0.0959
CCCAACCG	-0.0616
CACAAGTA	0.0318
AGAAGCAA	0.156
AGAGATCG	-0.06
AACCGCTC	-0.00049
CTAAGGCC	-0.125
CATGTAAG	0.0682
GCCTCGCA	0.0357
AATCCACT	0.0288
ACGTGTCT	-0.117
CCGAGGAA	-0.00498
CAGTCAGA	0.0195
CCGTATAA	0.151
ACAGAGCT	-0.214
CCGGGGGC	-0.377
GACTATAC	0.105
ACGTTTTA	0.00368
TACCTTAA	0.017
ACAAATAG	0.171
CCCGTTTA	0.131
CACCCCAA	0.0637
CCAGGCAG	-0.226
CCCTGCCA	0.189
AAATCGTT	0.0869

Sequence	PBM E-score
GGTATTGA	0.114
AATACACT	0.0862
GCCTTTAC	-0.0865
GGTCTATA	0.0742
AGTGGGCC	-0.169
CTTGCCAC	-0.0947
GTTGGGCA	0.0543
AGTGCTTA	-0.0349
GTGTAAAA	0.0467
ATTTTAAA	0.0944
ATGCGGGA	0.0765
CTCCTATC	-0.136
AAGTAGGT	-0.0619
CGGATTGC	0.161
AGCGCAAC	0.153
CACTTCAC	-0.0837
CCATTCCG	-0.0719
ATGTTCTG	0.0745
TCAAACAA	0.0877
CTTTGAAC	0.00817
AAGTCAAG	-0.0115
GCATTAGC	0.0026
CGGTCGAA	0.0932
ATTCTCCC	0.0178
GGACCTCC	-0.12

Some values from above.
Value for AGACAACG under PBM E-score: 0.186
Value for ACAAATAG under PBM E-score: 0.171
Value for CATGTAAG under PBM E-score: 0.0682
Value for AACCGCTC under PBM E-score: -0.00049

Continuation.

Sequence	PBM E-score
CAGTCTGA	-0.0255
ACAGAGTA	-0.00075
GGGTACCA	-0.0939
ATCGCCTA	-0.143
ATCCAGAA	0.028
GAGAAATA	0.153
AATAAGGC	-0.0132
ATTAAGAA	0.0555
GTTTTCGA	0.0644
GGGGTGGA	-0.166
AACGAAAG	-0.0319
CACAAATC	0.122
CATTGGTC	-0.121
AAAGTTCC	-0.081
GAGCCGGC	-0.0198
TCATGAAA	0.0629
AGTTTATG	-0.144
ATGTGTCG	0.0908
CAGTTCGG	-0.0372
CTAAGATA	0.0976
CACCTCTC	-0.0403
CGTGAGCC	-0.214
ATCAATTA	0.271
ACTTTCCG	0.0971
AGCAATAC	0.12

Sequence	PBM E-score
AGGTGGCG	-0.0682
ACCTTGGG	0.0344
TGTGTGAA	0.0142
TCTACAAA	0.107
ACTTGAGA	0.0111
AATGTAGT	0.094
AATCTTAT	-0.0572
AACATGTA	0.0587
ATGCCCTG	0.11
CAAGCTTG	-0.0731
GATGCGTA	-0.102
CAGTTCTC	0.0397
AGAGGAAT	-0.0425
ACATAATC	0.193
AGACTTTC	0.0343
CTATCTCA	0.0251
AAACCCCC	-0.322
ATGAGCCG	-0.138
GAGTTCCC	0.0556
AGAGTATA	0.0181
ACCTTCTG	0.104
ACAGGTCA	-0.163
CTCGGGTA	-0.0916
AAGACCTA	-0.126
ACAGCGCC	0.00214

Sequence	PBM E-score
AATACGGG	-0.181
CGCCCGTC	0.0793
GTCGGAAA	0.234
GTGTACTA	0.0211
GTAAGGTA	0.039
GCGCCGCC	0.17
ATTCTACG	0.11
GGGGCTCA	-0.2
ACCGACAA	0.0162
AAAAAGCG	0.0651
GCTGTCGA	-0.0651
AAAGAAAT	0.223
CCCTATCC	0.0356
CACTTACA	0.0197
CATTTGAG	0.155
CACTGCTG	-0.127
ATTCCCCG	-0.00252
AATTTCAT	0.0846
CGGGACCA	-0.173
AAGTCCCA	-0.0858
AATATTCA	0.144
CAACAGTA	-0.0361
CTGAGTGA	0.127
AGTAGATC	-0.0113
AATATAGG	0.229

Sequence	PBM E-score
CGTGGGAC	0.0306
CTGGCTCA	0.0248
TCGAACAA	0.259
GAAGGAGC	-0.377
ACATCTGG	-0.0515
CCAGGGCG	0.00949
ATGCCTTG	-0.114
GAATTGAC	0.163
CTCCACGA	-0.122
AACAAGCC	-0.251
AAAGAGCG	0.0513
GCCCCACA	0.0133
GCGGGTCC	-0.0518
CGTCCTTA	-0.0686
GCTATTCC	-0.0857
ACATCAAG	0.0863
CTGATCCA	0.156
ATCTATAG	-0.0147
AACTCCGG	0.123
